PubChem BioAssay AID1259254, NCATS, 2017
The deposit covers about 59,000 reagents; shown is a part drawn at random. Of all reagents, about 1,550 (2.6%) got an active call. 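G2 share is only a proxy for re-replication; each gene was hit by three separate siRNAs, and active genes were retested.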 A number with no mark means an inactive call. The numbers tell different reagents against one gene apart. Further read-outs or replicates are left out here. Reagent sequences are not shown. Not given: the amount of reagent.

Purpose: 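Genome-wide screen for genes that prevent DNA re-replication in cancer cells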 (primary screen)
System: human HCT116 colorectal cancer cells
Reagent: single siRNA against human genes
Duration: 3 days
Measured: 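Imaged Hoechst DNA stain sorts each cell into a cycle phase by DNA amount; per plate, G2 fraction set to 0% for non-targeting and 100% for GMNN siRNA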
Reading the numbers: G2 robust z-score and G2 cells, % of GMNN control: higher = more G2 cells, more excess DNA replication
Active means: 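An siRNA counts as active if its G2 robust z-score lies at least 5 MADs above the screen median; here such calls match roughly 38% of GMNN control or more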

VANGL1 #1 → G2 robust z-score: 2.16; G2 cells, % of GMNN control: 18.1
VANGL1 #2 → G2 robust z-score: 0.563; G2 cells, % of GMNN control: 6.93
VANGL1 #3 → G2 robust z-score: -1.03; G2 cells, % of GMNN control: -4.27
CENPE #1 → G2 robust z-score: 0.683; G2 cells, % of GMNN control: 7.77
CENPE #2 → G2 robust z-score: 1.33; G2 cells, % of GMNN control: 12.3
CENPE #3 → G2 robust z-score: 4.41; G2 cells, % of GMNN control: 34
H2ACP1 #1 → G2 robust z-score: -0.477; G2 cells, % of GMNN control: -0.39
H2ACP1 #2 → G2 robust z-score: 3.83; G2 cells, % of GMNN control: 29.9
H2ACP1 #3 → G2 robust z-score: 1.15; G2 cells, % of GMNN control: 11.1
PIK3C2A #1 → G2 robust z-score: -0.989; G2 cells, % of GMNN control: -3.99
PIK3C2A #2 → G2 robust z-score: 2.44; G2 cells, % of GMNN control: 20.1
PIK3C2A #3 → G2 robust z-score: -0.485; G2 cells, % of GMNN control: -0.442
AGA #1 → G2 robust z-score: -0.985; G2 cells, % of GMNN control: -3.96
AGA #2 → G2 robust z-score: -0.223; G2 cells, % of GMNN control: 1.4
AGA #3 → G2 robust z-score: -0.913; G2 cells, % of GMNN control: -3.45
ZUP1 #1 → G2 robust z-score: -0.371; G2 cells, % of GMNN control: 0.357
ZUP1 #2 → G2 robust z-score: -0.734; G2 cells, % of GMNN control: -2.2
ZUP1 #3 → G2 robust z-score: -0.164; G2 cells, % of GMNN control: 1.82
